Data taken from ChEMBL document CHEMBL3988442, “University of Dundee, Small-Polar-MMV Screening Library” (2021).

Amino acid sequences for entries named in this document (tags omitted). Residues count along the entry.
UniProt A4I591, 1-473: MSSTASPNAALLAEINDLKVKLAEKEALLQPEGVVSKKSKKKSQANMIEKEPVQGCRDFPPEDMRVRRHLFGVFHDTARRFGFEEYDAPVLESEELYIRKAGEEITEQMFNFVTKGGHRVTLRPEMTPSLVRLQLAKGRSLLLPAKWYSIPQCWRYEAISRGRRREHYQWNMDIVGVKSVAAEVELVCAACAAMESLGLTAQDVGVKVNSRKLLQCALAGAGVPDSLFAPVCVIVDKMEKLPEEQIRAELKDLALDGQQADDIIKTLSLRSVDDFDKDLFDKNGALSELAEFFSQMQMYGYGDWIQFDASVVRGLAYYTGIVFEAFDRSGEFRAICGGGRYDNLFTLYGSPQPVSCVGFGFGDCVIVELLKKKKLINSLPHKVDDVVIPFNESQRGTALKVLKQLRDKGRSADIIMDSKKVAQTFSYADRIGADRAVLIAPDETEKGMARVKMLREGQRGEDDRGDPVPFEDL

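Enzyme assay of histidyl-tRNA synthetase; the read-out is not stated. Target: Histidine-tRNA ligase, Leishmania infantum (UniProt A4I591). Tested at 30 µM. Direction is inferred from retests: higher values go with stronger inhibition. The assay is labelled LdHisRS but filed under L. infantum. About 69,000 compounds were tested under these conditions; 0.6% (about 410) showed 50% or more at least once.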

Values are the deposited “Percent Effect”, in %.
How 0% and 100% were set is not recorded. Most values in the screen are low, and negative values occur.
This is an unselected part of the compounds tested.

* Cn1cnnc1SCCCNC(=O)Nc1ncccn1 | 10.75%
* Cc1cccc(S(=O)(=O)N2CCCC3(CCCN3S(C)(=O)=O)C2)c1 (stereo unspecified) | 4.167%
* CC(Cn1cncn1)NCc1n[nH]c2c1CCCCC2 (stereo unspecified) | 8.73%
* Cc1ccc(C(=O)N2C[C@H]3CCCC(OCc4cccnc4)[C@H]3C2)cn1 (stereo partly specified) | 0%
* CC(C)C(C)N(C)C(=O)COc1ccccc1C#N (stereo unspecified) | 4.762%
* CN1CCN(CC(C)(C)C)CC1CCO (stereo unspecified) | 1.639%
* CCN1CCC(NC(=O)CN2CCc3c(nc(C4CC4)n3C)C2)CC1 | 0%
* CC1CCCN(CCNC(=O)c2scnc2Cl)C1 (stereo unspecified) | 13.16%
* Cc1cnn(CC2CN(Cc3cccc(C(=O)N(C)C)c3)CCO2)c1 (stereo unspecified) | 24.66%
* Cc1ccc(C(=O)NCC2(O)CCOCC2)cc1F | 20.55%
* Cn1cc(-c2cnc(N3CCCC3)nc2)cc1C(=O)N1CCOCC1 | 12.82%
* CCOCCCC(=O)Nc1ccc(OCc2noc(C3CC3)n2)cc1 | 8.036%
* Cc1cc(F)ccc1OC1(C(=O)O)CCN(Cc2nccn2C)CC1 | 5.263%
* O=C1CC2(CCN(Cc3ccc4cccc(O)c4n3)CC2)CN1 | 63.16%
* O=C(Nc1ccccc1F)C1CN(C(=O)c2ccc3c(c2)OCO3)C1 | 23.38%
* CC(SCc1cc(Br)cc2cccnc12)C(N)=O (stereo unspecified) | 15.87%
* Fc1ccc(CNCCn2cccn2)c(F)c1 | 7.08%
* CC(CNC(=O)c1nnn(-c2ccccc2)c1C(F)(F)F)N(C)C (stereo unspecified) | 10.42%
* COCCN1CCN(Cc2cccc(C(=O)N(C)C)c2)CC1C (stereo unspecified) | -33.78%
* F[C@@H]1CN(Cc2cccnc2)C[C@@H]1OCc1nc2ccccc2[nH]1 | 21.62%
* COc1ccccc1C(O)CNc1c(C#N)c(=O)n(C)c(=O)n1C (stereo unspecified) | 10.17%
* CCc1nc(Cn2c(=O)n(C)c3ccccc32)no1 | 14.89%
* Cc1cc(C2CCCN2c2ncc(C(N)=O)cc2Cl)no1 (stereo unspecified) | 22.41%
* CC1CCN(S(=O)(=O)NC(C)Cc2ccco2)CC1 (stereo unspecified) | 14.47%
* Cc1cc(CN(C)C(C(=O)O)c2cccc(C(F)(F)F)c2)on1 (stereo unspecified) | 17.7%
* Cc1nc(N2CCOCC2)nc2c1CCN(C(=O)C1CC1)CC2 | 15.38%
* Cc1cccc(CN2CCC3(CCN(c4ccccn4)C3)C2=O)c1 (stereo unspecified) | 34.15%
* O=C(Cc1cccs1)NCc1ccnc(C2CCCOC2)n1 (stereo unspecified) | 1.399%
* NC(=O)N1CCCN(C2CCCCc3ccccc32)CC1 (stereo unspecified) | 12.82%
* CCc1ccccc1NCc1nc2[nH]c(C)c(C)c(=O)n2n1 | -1.087%
* CC(C)c1cc(NC(=O)CN2CCCC2c2noc(C(C)C)n2)on1 (stereo unspecified) | 10.34%
* Cc1nnc(C(C)N2CCc3[nH]c4ccc(Cl)cc4c3C2)o1 (stereo unspecified) | 34.69%
* CN(Cc1n[nH]c2c1CCC2)C(=O)CCc1cc2n(n1)CCCNC2 | -14.75%
* CC(=O)c1cnc(N(C)Cc2cc(C)cc(C)n2)nc1C | 21.51%
* CCC(C)C(=O)N(C)Cc1cc(F)ccc1N1CCC(OC)CC1 (stereo unspecified) | 11.67%
* CC(=O)N1CCC(NC(=O)N(C)Cc2c(C)noc2C)CC1 | 12.04%

3 of the entries, repeated:

| Compound | Percent Effect |
|---|---|
| `Cc1cc(CN(C)C(C(=O)O)c2cccc(C(F)(F)F)c2)on1` (stereo unspecified) | 17.7 |
| `Cc1nnc(C(C)N2CCc3[nH]c4ccc(Cl)cc4c3C2)o1` (stereo unspecified) | 34.69 |
| `CC(=O)N1CCC(NC(=O)N(C)Cc2c(C)noc2C)CC1` | 12.04 |